The values below come from the supplement of paper PMC3682954.

The test system of the assay is RAW 264.7. Briefly: HMGB1-induced TNF-alpha production relative to HMGB1-stimulated control; higher = more TNF-alpha secretion (less inhibition). Conditions: stimulus: HMGB1 5 ug/ml, 18 h.
Where [1] appears, read: compound concentration: 1 ug/ml.

Several values for one entry are separate records, joined by “and”; a condition that tells them apart may be missing. Equal values may be shown once. Where a name gives a salt, the structure may show the parent alone. ± gives the standard deviation of the averaged measurements. This is one part of the list. Many values rest on one well or one pass, so single values are uncertain.

Turning to `CC(=O)OC1CCC2(C)C(CCC3(C)C2C(=O)C=C2C4CC(C)(C(=O)N5CC6CC(C5)c5cccc(=O)n5C6)CCC4(C)CCC23C)C1(C)C` (configuration not stated), the “HMGB1-induced TNF-alpha production” value under setting [1] came to 71.6%.
For `CC(=O)NS(=O)(=O)c1ccc(N)cc1` [Sulfacetamide sodic hydrate], the “HMGB1-induced TNF-alpha production” value (compound concentration: 3 uM) was determined as 76.2%.
Still for that read-out and setting: the same measure for `CC(=O)NS(=O)(=O)c1ccc(N)cc1`: 75.8%.
For `C=C1CC[C@@H]2[C@](C)(CO)[C@H](O)CC[C@@]2(C)[C@@H]1C/C=C1/C(=O)OC[C@H]1O` [Andrographolide], under setting [1], the “HMGB1-induced TNF-alpha production” value turned out to be 52.1%.
Consider `O=C(Nc1cccc(C(=O)Nc2ccc(S(=O)(=O)O)c3cc(S(=O)(=O)O)cc(S(=O)(=O)O)c23)c1)Nc1cccc(C(=O)Nc2ccc(S(=O)(=O)O)c3cc(S(=O)(=O)O)cc(S(=O)(=O)O)c23)c1`, for which, under “compound concentration: 3 uM”, the “HMGB1-induced TNF-alpha production” value is 114%.
The same measure, in the same setting: the same measure for `COc1cccc2c1C(=O)c1c(O)c3c(c(O)c1C2=O)C[C@@](O)(C(C)=O)C[C@@H]3O[C@H]1C[C@H](N)[C@H](O)[C@H](C)O1`: 6.45 ± 12%; for `COc1cccc2c1C(=O)c1c(O)c3c(c(O)c1C2=O)C[C@@](O)(C(C)=O)C[C@@H]3O[C@H]1C[C@H](N)[C@H](O)[C@H](C)O1` [Daunorubicin]: 8.69%; for `COc1cccc2c1C(=O)c1c(O)c3c(c(O)c1C2=O)C[C@@](O)(C(C)=O)C[C@@H]3O[C@H]1C[C@H](N)[C@H](O)[C@H](C)O1` [Daunorubicin hydrochloride]: 0.959%.
On the same count and under the same terms, the same measure for `CC1=C(/C=C/C(C)=C/C=C/C(C)=C/CO)C(C)(C)CCC1`: 97.9%.
As to `CC1=C(/C=C/C(C)=C/C=C/C(C)=C/CO)C(C)(C)CCC1` [Retinol; Vitamin A, synthetic, 95.%], under setting [1], the “HMGB1-induced TNF-alpha production” value was found to be 62.8%.
For the molecule `COc1ccccc1N1CCN(CCN(C(=O)c2ccc(I)cc2)c2ccccn2)CC1` [p-MPPI hydrochloride], the “HMGB1-induced TNF-alpha production” value (compound concentration: 3 uM) was 102%.
Same read-out and setting: the same measure for `O=C(O)c1ccccc1OP(=O)(O)O` [Fosfosal]: 119%; for `O=C(O)c1ccccc1OP(=O)(O)O`: 82%; for `OC1(c2ccc(Cl)cc2)CCN(Cc2c[nH]c3ccccc23)CC1`: 99.1%.
On to `C/C=C(/C(=C/C)c1ccc(O)cc1)c1ccc(O)cc1`, for which the “HMGB1-induced TNF-alpha production” value (compound concentration: 3 uM) was determined as 66%.
The same measure, in the same setting: to `C/C=C(/C(=C/C)c1ccc(O)cc1)c1ccc(O)cc1` [Dienestrol] belongs 85%; to `Cc1ncc([N+](=O)[O-])n1CC(C)O` (configuration not stated) [Secnidazole], 101 ± 25%; to `Cc1ncc([N+](=O)[O-])n1CC(C)O` (configuration not stated) [1-(2-Methyl-5-nitro-imidazol-1-yl)-propan-2-ol], 108%.
For `Cc1ncc([N+](=O)[O-])n1CC(C)O` (configuration not stated), the “HMGB1-induced TNF-alpha production” value (compound concentration: 3 uM) was 83.4%.
Regarding `COc1ccc2cc([C@H](C)C(=O)O)ccc2c1`, the “HMGB1-induced TNF-alpha production” value (compound concentration: 3 uM) was 98.9%.
Same read-out and setting: to `COc1ccc2cc([C@H](C)C(=O)O)ccc2c1` [(-)-Naproxen sodium] belongs 99.1%; to `COc1ccc2cc([C@H](C)C(=O)O)ccc2c1` [Naproxen], 81.8 ± 35%.
As to `C=C(C)[C@H]1CC=C(C)C(=O)C1` [D(+)-Carvone], the “HMGB1-induced TNF-alpha production” value under setting [1] was found to be 81%.
As to `Nc1cc(N2CCCCC2)nc(N)[n+]1[O-]`, the “HMGB1-induced TNF-alpha production” value (compound concentration: 3 uM) was 94.1%.
In the case of `Nc1cc(N2CCCCC2)nc(N)[n+]1[O-]` [Minoxidil], where the note is “compound concentration: 3 uM”, the “HMGB1-induced TNF-alpha production” value came out at 79.7 ± 12%.
Still for that read-out and setting: the same measure for `Nc1ncnc2c1ncn2[C@@H]1O[C@H](COP(=O)(O)OP(=O)(O)OP(=O)(O)OP(=O)(O)OC[C@@H]2O[C@H](n3cnc4c(N)ncnc43)C(O)[C@@H]2O)[C@H](O)C1O` (some centres not stated) [P1,P4-Di(adenosine-5')tetraphosphate triammonium]: 104%.
Still for that read-out and setting: to `CN(C)C(=O)n1nnnc1Cc1ccc(-c2ccccc2)cc1` belongs 149%; to `CC1(C)S[C@@H]2[C@H](NC(=O)[C@H](N)c3ccccc3)C(=O)N2[C@H]1C(=O)O` [Ampicillin], 94.7%.
Consider `CC1(C)S[C@@H]2[C@H](NC(=O)[C@H](N)c3ccccc3)C(=O)N2[C@H]1C(=O)O` [Ampicillin trihydrate], for which the “HMGB1-induced TNF-alpha production” value (compound concentration: 3 uM) was 76.6%.
Same read-out and setting: the same measure for `CC1(C)S[C@@H]2[C@H](NC(=O)[C@H](N)c3ccccc3)C(=O)N2[C@H]1C(=O)O`: 82.1%.
With `C=C[C@H]1CN2CC[C@H]1C[C@H]2[C@H](O)c1ccnc2ccc(OC)cc12` [Quinine], the “HMGB1-induced TNF-alpha production” value under setting [1] stood at 52.8%.
On to `C=C[C@H]1CN2CC[C@H]1C[C@H]2[C@H](O)c1ccnc2ccc(OC)cc12` [Quinine sulfate], for which the “HMGB1-induced TNF-alpha production” value (compound concentration: 3 uM) turned out to be 78.3%.
Take `C=C[C@H]1CN2CC[C@H]1C[C@H]2[C@H](O)c1ccnc2ccc(OC)cc12`: the “HMGB1-induced TNF-alpha production” value (compound concentration: 3 uM) is 84.3% and 90%.
On the same count and under the same terms, the same measure for `O=c1n(CCCN2CCN(c3cccc(Cl)c3)CC2)nc2ccccn12` [Trazodone hydrochloride]: 89.5 ± 19%; for `O=c1n(CCCN2CCN(c3cccc(Cl)c3)CC2)nc2ccccn12`: 106 ± 0.94%; for `CC(=O)NCCCCCC(=O)O`: 70.1%.
Still for that read-out and setting: the same measure for `O=C(O)c1cc(=O)[nH]c(=O)[nH]1`: 88.9%.
As for `Oc1ccc(-c2nc(-c3ccc(F)cc3)c(-c3ccncc3)[nH]2)cc1`, the “HMGB1-induced TNF-alpha production” value (compound concentration: 3 uM) stood at 45.5%.
On the same count and under the same terms, the same measure for `CCC(NC(C)C)C(O)c1ccc(O)c2[nH]c(=O)ccc12` (configuration not stated) [Procaterol]: 67%; for `Nc1nc(N)c(N=O)c(OCC2CCCCC2)n1`: 99.4%; for `CO[C@@H]1[C@H](OC(=O)/C=C/C=C/C=C/C=C/C(=O)O)CC[C@]2(CO2)[C@H]1[C@@]1(C)O[C@@H]1CC=C(C)C` [Fumagillin]: 91.1%.
On the same count and under the same terms, the same measure for `NC(=O)c1cnccn1` [Pyrazinecarboxamide]: 94.3%; for `NC(=O)c1cnccn1` [Pyrazinamide]: 64.2%.
With `NC(=O)c1cnccn1`, for the setting “compound concentration: 3 uM”, the “HMGB1-induced TNF-alpha production” value came out at 84.8%.
The same measure, in the same setting: to `CCCn1c(=O)c2[nH]c(C3CCCC3)nc2n(CCC)c1=O` [8-Cyclopentyl-1,3-dipropylxanthine] belongs 82.4%.
Same read-out and setting: the same measure for `O=C(CCNNC(=O)c1ccncc1)NCc1ccccc1` [Nialamide]: 108 ± 8.9%; for `O=C(CCNNC(=O)c1ccncc1)NCc1ccccc1`: 97.6 ± 14%; for `N/C(=N\C(=O)c1nc(Cl)c(N)nc1N)NCc1ccccc1` [Benzamil]: 84.1%.
On the same count and under the same terms, to `N/C(=N\C(=O)c1nc(Cl)c(N)nc1N)NCc1ccccc1` [Benzamil hydrochloride] belongs 84 ± 17%; to `CCC(=O)c1ccc2c(c1)N(CCCN(C)C)c1ccccc1S2` [Propionylpromazine hydrochloride], 94.2%; to `Cc1nc2ccccn2c(=O)c1CCN1CCC(C(=O)c2ccc(F)cc2)CC1`, 91.4 ± 23%.
For the molecule `Cc1nc2ccccn2c(=O)c1CCN1CCC(C(=O)c2ccc(F)cc2)CC1` [Pirenperone], under “compound concentration: 3 uM”, the “HMGB1-induced TNF-alpha production” value came out at 89.8 ± 23%.
As for `CSc1nc2cc(Cl)c(Oc3cccc(Cl)c3Cl)cc2[nH]1`, for the setting “compound concentration: 3 uM”, the “HMGB1-induced TNF-alpha production” value was 79.5 ± 29%.
As to `CCCCC[C@H](O)/C=C/[C@H]1[C@H](O)CC(=O)[C@@H]1C/C=C\CCCC(=O)O` [Dinoprostone], under “compound concentration: 3 uM”, the “HMGB1-induced TNF-alpha production” value worked out at 67%.
The same measure, in the same setting: to `COc1cccc2c1C(=O)c1c(O)c3c(c(O)c1C2=O)C[C@@](O)(C(=O)CO)C[C@@H]3O[C@H]1C[C@H](N)[C@@H](O)[C@H](C)O1` belongs 16.9 ± 7.3%.
Regarding `O[C@H]1[C@H](O)[C@@H](O)[C@H](O)[C@@H](O)[C@H]1O`, the “HMGB1-induced TNF-alpha production” value (compound concentration: 3 uM) turned out to be 84.4%.
On the same count and under the same terms, to `N=C(N)c1ccc(N)cc1` [4-Aminobenzamidine dihydrochloride] belongs 90.2%; to `CCCN(CCC)CCc1cccc2c1CC(=O)N2` [Ropinirole hydrochloride], 89.3%; to `CCCN(CCC)CCc1cccc2c1CC(=O)N2`, 93.4%.
Still for that read-out and setting: the same measure for `CCCN(CCC)CCc1cccc2c1CC(=O)N2` [Ropinirole HCl]: 111%; for `C/C=C/c1ccc(OC)cc1` [Anethole, trans-]: 100%; for `C/C=C/c1ccc(OC)cc1`: 82.4%.
As for `COC(=O)C[C@](O)(CCCC(C)(C)O)C(=O)O[C@@H]1C(OC)=C[C@]23CCCN2CCc2cc4c(cc2[C@H]13)OCO4`, the “HMGB1-induced TNF-alpha production” value (compound concentration: 3 uM) was -1.82%.
Still for that read-out and setting: the same measure for `Cc1[nH]c(=O)c(C#N)cc1-c1ccc2nccn2c1` [Olprinone hydrochloride]: 92.2%.
On to `CC(=O)O[C@H]1C(=O)[C@@]2(C)[C@H]([C@H](OC(=O)c3ccccc3)[C@]3(O)C[C@H](OC(=O)[C@H](O)[C@@H](NC(=O)c4ccccc4)c4ccccc4)C(C)=C1C3(C)C)[C@]1(OC(C)=O)CO[C@@H]1C[C@@H]2O` [Taxol], for which the “HMGB1-induced TNF-alpha production” value (compound concentration: 3 uM) worked out at 112 ± 16%.
Still for that read-out and setting: the same measure for `CC(=O)O[C@H]1C(=O)[C@@]2(C)[C@H]([C@H](OC(=O)c3ccccc3)[C@]3(O)C[C@H](OC(=O)[C@H](O)[C@@H](NC(=O)c4ccccc4)c4ccccc4)C(C)=C1C3(C)C)[C@]1(OC(C)=O)CO[C@@H]1C[C@@H]2O`: 109 ± 6%.
Still for that read-out and setting: the same measure for `CC(=O)O[C@H]1C(=O)[C@@]2(C)[C@H]([C@H](OC(=O)c3ccccc3)[C@]3(O)C[C@H](OC(=O)[C@H](O)[C@@H](NC(=O)c4ccccc4)c4ccccc4)C(C)=C1C3(C)C)[C@]1(OC(C)=O)CO[C@@H]1C[C@@H]2O` [Paclitaxel]: 129%; for `O=Nc1ccc2oc(=O)ccc2c1` [6-Nitroso-1,2-benzopyrone]: 88.2%; for `CC(C)(C)c1ccc(S(=O)(=O)/C=C/C#N)cc1`: 34.7%.
Regarding `CC(N)CCCC(C)(C)O` (configuration not stated), the “HMGB1-induced TNF-alpha production” value (compound concentration: 3 uM) is 80.6%.
The same measure, in the same setting: to `CC(N)CCCC(C)(C)O` (configuration not stated) [Heptaminol hydrochloride] belongs 74.2%; to `CN1CCCN=C1/C=C/c1cccc(O)c1` [Oxantel pamoate], 70.2%.
The same measure, in the same setting: to `CN1CCCN=C1/C=C/c1cccc(O)c1` belongs 80.3%; to `Oc1cccc(O)c1`, 98.7%.
On the same count and under the same terms, the same measure for `C[C@@H](O[C@H]1OCCN(Cc2n[nH]c(=O)[nH]2)[C@H]1c1ccc(F)cc1)c1cc(C(F)(F)F)cc(C(F)(F)F)c1` [Aprepitant]: 95.6%.
Turning to `CC1CN([C@H]2C[C@H](O)[C@@H](CO)O2)C(=O)NC1=O` (some centres not stated) [5,6-Dihydrothymidine], under setting [1], the “HMGB1-induced TNF-alpha production” value turned out to be 82.7%.
`CC(=O)N(c1onc(C)c1C)S(=O)(=O)c1ccc(N)cc1`: for the setting “compound concentration: 3 uM”, the “HMGB1-induced TNF-alpha production” value amounted to 74.9%.
On the same count and under the same terms, the same measure for `Cc1cc(O)cc(C)c1Cl`: 83.7%.
For `O=c1cc(-c2ccccc2O)oc2ccc(O)cc12` [2',6-Dihydroxyflavone], the “HMGB1-induced TNF-alpha production” value under setting [1] was found to be 76.2%.
Consider `O=C(O)c1cc(=O)c2c(Cl)cc(Cl)cc2[nH]1` [5,7-Dichlorokynurenic acid], for which the “HMGB1-induced TNF-alpha production” value (compound concentration: 3 uM) was found to be 85.4%.
On the same count and under the same terms, the same measure for `Nc1nc(OCC2CCCCC2)c2[nH]cnc2n1`: 99.6%.
Still for that read-out and setting: to `CC=CC1=C(C(=O)O)N2C(=O)[C@@H](NC(=O)[C@H](N)c3ccc(O)cc3)[C@H]2SC1` belongs 86.3%.
